Inconclusive results, whose numbers are uncertain, are shown with a selection of clear calls. A potency beside an inconclusive call is a rough fit, not a confirmed value. Calls of active or inactive are those of the source. Calls follow the shape of the dose curve; as a rule, active = well fitted activation curve with a large enough effect; inconclusive = small, poorly fitted or top-dose-only effect; inactive = no such curve, though single readings can be large or run the other way.
Assay: qHTS assay for re-activators of p53 using a Luc reporter: Hit Validation; also: nearly all actives have a fitted effect of over 75% in size; as to activation: 0% is about no effect
Conditions: p53-responsive luciferase reporter cells, luminescence, H1299 line expressing heat-sensitive Ala138Val p53; series mostly up to 46.1 µM; activation: at the top concentration
Excerpt: The p53 tumor suppressor plays a key role in suppression of tumorigenesis and in human carcinogenesis. It is frequently found inactivated in human cancers, mainly by point mutation. These point mutations are found in a wide variety of human cancers and a majority of them affect the DNA binding domain of the protein. The point mutations either alter native p53 conformation or abolish DNA contact. Additionally, cancer cells with p53 mutations are more resistant to chemo-radiation therapies.
In order to find activators to reactivate this important protein, a cell-based screen for p53-dependent luciferase-reporter expression was developed. A p53-null H1299 lung cancer cell line was stably co-transfected with a temperature sensitive p53 mutant, p53-A138V, and a p53-responsive BP100-luciferase reporter. This cell model has previously been characterized in a gene chip profiling experiment for p53 activation. By lowering the culture temperature from 37 deg C (mutant p53 conformation) to 32 deg C (w.t. p53 conformation), a 30-60 fold increase in activation of luciferase activity is observed. At assay temperate, 37 deg C, basal reporter expression is very low and after the addition of detection reagent, a luminescent read-out is carried out. This is the hit validation assay, confirming the hits identified from the primary screen.
NIH Chemical Genomics Center [NCGC]
NIH Molecular Libraries Probe Production Centers Network [MLPCN]
Assay Provider (PI): Yi Sung, University of Michigan at Ann Arbor
5ul of 1000 cells per well are dispensed in all wells except column 4, into white solid-bottom TC-treated Kalypsys plates. The cells are kept in Opti-MEM and supplemented with 10% FBS and dispensed using a Multidrop (Thermo). Then using the Kalypsys pin-tool, 23nl of compounds are pinned. The compounds are starting concentration at 10mM, with 1:5 dilution, 4 points, and the control compound nocodazole is pinned in column 1 at 25mM, 1:3 dilution, in duplicate, 25mM nocodazole is pinned in column 2. Please note, all concentrations are working concentrations. 5ul of 1pM purified luciferase enzyme is dispensed using the Kalypsys dispenser in column 4. Plates are incubated for 24 hrs at 37 deg C, 5% CO2, and 95% humidity. Then 4ul of the detection reagent Amplite (ABD Bioquest) is added using the Kalypsys dispenser. Plates are incubated for 10 min at ambient room temperature and are then read on the ViewLux (Perkin Elmer) using a clear filter for a luminescent read-out.
Potency is read from the fitted curve at half-maximal effect.

SMILES	Potency	activation
O=C1/C(=C/c2ccco2)SC(=S)N1CCC(=O)N1CCCCC1CCO (stereo not given)	inconclusive: 0.231 µM [activator, partial curve, poor fit]	
Cc1cccc(NC(=O)/C=C/c2ccc([N+](=O)[O-])s2)c1		inactive: -39.1%
Cc1ccccc1Cn1nnc(-c2cccc(C(=O)O)c2)n1	inconclusive: 0.92 µM [activator, full curve, poor fit]	
Nc1nonc1-n1nnc(C(=O)N/N=C/c2ccc(OCc3cccc(Cl)c3)cc2)c1CN1CCCCC1	inconclusive: 29.1 µM [activator, single point]	
Cc1cccc(Nc2cc(=O)[nH]c(=O)[nH]2)c1C		inactive: 0%
O=C(Oc1ccccc1/C=C\C(=O)c1cc2ccccc2o1)c1cccc(F)c1	active: 0.206 µM	
CCN1CCN(Cc2ccc(NC(=O)Nc3ccccc3)cc2)CC1	inconclusive: 0.58 µM [activator, partial curve, poor fit]	
c1ccc2c(c1)CCN(c1nc3cc4c(cc3s1)OCO4)C2	inconclusive: 0.461 µM [activator, partial curve, poor fit]	
Brc1ccccc1-c1nc(-c2ccccc2)no1	inconclusive: 0.731 µM [activator, partial curve, poor fit]	
Cc1ccnc(NC(=O)CCC2CCCCC2)c1	inconclusive: 1.84 µM [activator, partial curve, poor fit]	
O=C(N/N=C/c1cccc(F)c1)NC1CCCCC1	inconclusive: 36.6 µM [activator, single point]	
Cc1ccc(/C=C2\SC(=S)N(CCCC(=O)Nc3nccs3)C2=O)cc1	inconclusive: 29.1 µM [activator, partial curve]	
O=c1c2ccccc2oc2nc(-c3ccco3)n(-c3ccccc3)c(=O)c12	inconclusive: 58 µM [activator, partial curve, poor fit]	
O=C(/C=C/c1ccccc1)NC1CCSC1=O (stereo not given)		inactive: 23.4% [at 9.22 µM]
CCN(CC)c1ccc2cc(-c3nc4ccccc4n3C)c(=O)oc2c1	inconclusive: 11.6 µM [activator, partial curve, poor fit]	
Cc1ccc(-c2cc3nc(C)cc(NCc4ccco4)n3n2)cc1	active: 7.31 µM	
Clc1ccc2nc(-c3ccc(Br)s3)cn2c1	inconclusive: 0.291 µM [activator, full curve, poor fit]	
Cc1ccc(N2C(=O)c3ccccc3C2C(=O)c2cc(C)ccc2O)cc1 (stereo not given)	inconclusive: 46.1 µM [activator, single point]	
COc1ccc(NC(=O)/C(Cl)=C(/Cl)S(=O)(=O)Cc2ccc(C)cc2)cn1		inactive: -94.3%
CC(C)(C)OC(=O)N1CCC(C(=O)Nc2ccc3c(c2)CCC3)CC1	active: 23.1 µM	

Ordered by length of the SMILES (low to high): some entries from above
SMILES	Potency	activation
Cc1ccnc(NC(=O)CCC2CCCCC2)c1	inconclusive: 1.84 µM [activator, partial curve, poor fit]	
O=C(/C=C/c1ccccc1)NC1CCSC1=O (stereo not given)		inactive: 23.4% [at 9.22 µM]
Clc1ccc2nc(-c3ccc(Br)s3)cn2c1	inconclusive: 0.291 µM [activator, full curve, poor fit]	
O=C(N/N=C/c1cccc(F)c1)NC1CCCCC1	inconclusive: 36.6 µM [activator, single point]	
c1ccc2c(c1)CCN(c1nc3cc4c(cc3s1)OCO4)C2	inconclusive: 0.461 µM [activator, partial curve, poor fit]	
Cc1cccc(NC(=O)/C=C/c2ccc([N+](=O)[O-])s2)c1		inactive: -39.1%
O=C1/C(=C/c2ccco2)SC(=S)N1CCC(=O)N1CCCCC1CCO (stereo not given)	inconclusive: 0.231 µM [activator, partial curve, poor fit]	
Cc1ccc(N2C(=O)c3ccccc3C2C(=O)c2cc(C)ccc2O)cc1 (stereo not given)	inconclusive: 46.1 µM [activator, single point]	
O=c1c2ccccc2oc2nc(-c3ccco3)n(-c3ccccc3)c(=O)c12	inconclusive: 58 µM [activator, partial curve, poor fit]	
O=C(Oc1ccccc1/C=C\C(=O)c1cc2ccccc2o1)c1cccc(F)c1	active: 0.206 µM	

Continued:

SMILES	Potency	activation
CC1(C)NC(=O)N(CC(=O)N2CCN(S(=O)(=O)c3ccccc3C(F)(F)F)CC2)C1=O		inactive: 16.7%
CC1C(=O)CCN(C(C)(C)C)C1C (stereo not given)		inactive: 5.21%
O=[N+]([O-])c1cccc(NC(=S)N2CCc3ccccc32)c1	inconclusive: 46.1 µM [activator, partial curve, poor fit]	
COc1ccc(S(=O)(=O)NC2CC(C)(C)NC(C)(C)C2)c2ccccc12		inactive: -12%
Cc1cccc(/C(N)=N/OC(=O)c2ccc3c(c2)OCO3)c1	active: 9.2 µM	
CC(=O)NC(=S)Nc1ccc(NC(=O)c2cccs2)cc1	inconclusive: 4.61 µM [activator, single point]	
O=C1NCCCc2c1oc1ccc(O)cc21		inactive: 41% [at 9.22 µM]
CCOc1ccc(-n2c(SCc3nc(-c4cccs4)no3)nnc2-c2ccncc2)cc1		inactive: -12.5%
Cc1cccc2nc(CNc3ccc(F)cc3)cn12	inconclusive: 36.6 µM [activator, single point]	
CCN(CC)C(=O)CNC(=S)N(CCCN1CCOCC1)Cc1cccs1		inactive: -10.4%
Fc1ccc(CCNC(=S)Nc2ccc(F)cc2)cc1	inconclusive: 29.1 µM [activator, single point]	
O=C(Nc1cccnc1Cl)c1cc(-c2ccccc2O)on1	inconclusive: 16.4 µM [activator, partial curve, poor fit]	
CCC(C)C(=O)N1CCc2cc(-c3csc(N)n3)ccc21 (stereo not given)	inconclusive: 0.366 µM [activator, partial curve, poor fit]	
Cc1cc(C(=O)N/N=C/c2cccn2C)n[nH]1	inconclusive: 36.6 µM [activator, single point]	
COc1cc(C(=O)NCCc2cn3ccc(C)cc3n2)cc(OC)c1OC		inactive: 13.6% [at 9.22 µM]
C/C(=N\N=c1/scc(C)n1Cc1ccco1)c1cccc([N+](=O)[O-])c1		inactive: 17.7%
O=C(NCCOc1ccccc1F)c1cc(F)c(F)cc1Cl	inconclusive: 0.517 µM [activator, full curve]	
O=[N+]([O-])c1cc(C(F)(F)F)ccc1NCCc1c[nH]c2ccccc12		inactive: 5.73%
Cc1cc(C(c2nnnn2Cc2ccccc2)N2CCOCC2)c(C)n1-c1ccc2c(c1)OCO2 (stereo not given)		inactive: 4.17%
CCCCCc1nnc(NC(=O)C2CCCO2)s1 (stereo not given)	inconclusive: 36.6 µM [activator, single point]	
